This is one part of the list.
Key:
Experiment in all cases: log2 fold change, soluble protein after heating vs DMSO (PISA); higher = thermal stabilisation; K562 cells, 10 uM, 30 min; active = over 0.2 and 3.5 SD of the protein, either way, in both replicates (recomputed)
[1] = compound: C1=CC=C(C=C1)[C@H](COC2=CC3=C(C=C2)NC(=O)N3)NC(=O)C4=CC=CN(C4=O)CC5=CC(=C(C=C5)F)F
Procedure, shortened: (§1)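 Thermal stability values are relative to control samples and come from duplicates. They are expressed as log2 fold changes. For measurement, K562 cells (2×10^6 cells/mL) received 10 μM compound for 30 min, and aliquots were heated for 3 min over 48°C-58°C, pooled, and extracted at 4°C in PBS with 0.5% NP-40. Soluble protein, the supernatant after 21,000xg for 90 min, was quantified by TMTpro 16plex LC-MS/MS with equalised channel sums.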

Sequences of proteins named here, by UniProt entry; tags and fusion partners are left off. A change or cut given only in a name is not applied to a line headed by its entry.
UniProt Q96S44: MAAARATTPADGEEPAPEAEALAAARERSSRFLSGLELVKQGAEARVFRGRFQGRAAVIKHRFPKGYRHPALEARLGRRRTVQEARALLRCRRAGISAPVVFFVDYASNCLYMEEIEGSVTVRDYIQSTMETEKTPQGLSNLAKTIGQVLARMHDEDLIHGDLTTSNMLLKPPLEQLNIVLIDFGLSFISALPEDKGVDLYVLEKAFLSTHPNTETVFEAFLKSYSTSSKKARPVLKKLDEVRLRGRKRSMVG
UniProt Q12888: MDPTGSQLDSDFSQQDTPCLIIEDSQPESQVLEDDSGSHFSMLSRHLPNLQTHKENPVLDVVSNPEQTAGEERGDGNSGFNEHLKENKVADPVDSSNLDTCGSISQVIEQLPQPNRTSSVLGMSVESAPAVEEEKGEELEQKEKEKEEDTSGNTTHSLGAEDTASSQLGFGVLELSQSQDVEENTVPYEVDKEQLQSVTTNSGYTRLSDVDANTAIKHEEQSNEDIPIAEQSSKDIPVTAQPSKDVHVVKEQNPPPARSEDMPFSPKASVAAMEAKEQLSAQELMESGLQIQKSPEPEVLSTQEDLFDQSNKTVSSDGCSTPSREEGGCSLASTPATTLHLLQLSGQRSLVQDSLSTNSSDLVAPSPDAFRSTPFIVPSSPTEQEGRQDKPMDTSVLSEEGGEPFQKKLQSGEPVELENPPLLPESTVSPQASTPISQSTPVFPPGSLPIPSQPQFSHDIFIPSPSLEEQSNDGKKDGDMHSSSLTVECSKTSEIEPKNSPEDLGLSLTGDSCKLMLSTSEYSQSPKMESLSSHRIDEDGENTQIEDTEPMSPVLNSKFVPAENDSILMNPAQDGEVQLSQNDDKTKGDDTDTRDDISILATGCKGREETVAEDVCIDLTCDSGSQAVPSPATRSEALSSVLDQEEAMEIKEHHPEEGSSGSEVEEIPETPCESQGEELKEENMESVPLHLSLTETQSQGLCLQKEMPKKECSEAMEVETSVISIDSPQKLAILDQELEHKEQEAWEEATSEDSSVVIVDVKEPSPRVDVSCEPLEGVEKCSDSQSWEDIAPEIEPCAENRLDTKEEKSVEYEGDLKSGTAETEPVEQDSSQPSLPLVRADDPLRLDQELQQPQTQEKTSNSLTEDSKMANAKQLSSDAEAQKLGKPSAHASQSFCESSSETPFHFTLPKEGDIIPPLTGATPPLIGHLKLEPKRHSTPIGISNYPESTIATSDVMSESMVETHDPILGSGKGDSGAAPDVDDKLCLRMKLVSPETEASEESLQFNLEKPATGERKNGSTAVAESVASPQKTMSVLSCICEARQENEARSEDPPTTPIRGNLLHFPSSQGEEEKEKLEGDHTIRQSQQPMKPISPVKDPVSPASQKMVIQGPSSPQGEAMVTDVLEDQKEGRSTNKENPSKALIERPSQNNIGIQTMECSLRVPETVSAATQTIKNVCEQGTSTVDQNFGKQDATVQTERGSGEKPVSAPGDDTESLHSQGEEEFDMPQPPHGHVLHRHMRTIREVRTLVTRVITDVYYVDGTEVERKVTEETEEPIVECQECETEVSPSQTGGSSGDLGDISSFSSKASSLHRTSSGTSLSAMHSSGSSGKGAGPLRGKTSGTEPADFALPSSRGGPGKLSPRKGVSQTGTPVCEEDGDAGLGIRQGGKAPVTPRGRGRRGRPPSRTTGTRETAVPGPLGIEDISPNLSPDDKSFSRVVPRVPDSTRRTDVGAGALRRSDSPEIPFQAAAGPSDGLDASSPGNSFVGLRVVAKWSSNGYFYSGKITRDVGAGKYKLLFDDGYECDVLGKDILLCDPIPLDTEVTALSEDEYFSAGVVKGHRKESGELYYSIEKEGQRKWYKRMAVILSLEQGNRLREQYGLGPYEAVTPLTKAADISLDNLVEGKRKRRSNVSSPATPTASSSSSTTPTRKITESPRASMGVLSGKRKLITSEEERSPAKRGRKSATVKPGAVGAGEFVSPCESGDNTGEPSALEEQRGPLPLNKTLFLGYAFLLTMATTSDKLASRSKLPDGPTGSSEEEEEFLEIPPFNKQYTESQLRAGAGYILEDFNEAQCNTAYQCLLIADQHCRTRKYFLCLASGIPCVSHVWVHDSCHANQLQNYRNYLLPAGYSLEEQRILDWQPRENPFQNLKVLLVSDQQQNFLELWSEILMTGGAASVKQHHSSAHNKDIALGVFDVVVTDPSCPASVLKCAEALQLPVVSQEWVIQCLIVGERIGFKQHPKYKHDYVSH
UniProt Q8IUR0, whole entry, looked up: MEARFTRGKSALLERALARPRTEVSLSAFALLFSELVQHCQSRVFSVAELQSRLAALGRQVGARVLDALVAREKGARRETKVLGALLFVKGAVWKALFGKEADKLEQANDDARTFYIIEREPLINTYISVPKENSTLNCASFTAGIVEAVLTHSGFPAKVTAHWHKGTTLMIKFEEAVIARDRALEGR
UniProt Q9H497: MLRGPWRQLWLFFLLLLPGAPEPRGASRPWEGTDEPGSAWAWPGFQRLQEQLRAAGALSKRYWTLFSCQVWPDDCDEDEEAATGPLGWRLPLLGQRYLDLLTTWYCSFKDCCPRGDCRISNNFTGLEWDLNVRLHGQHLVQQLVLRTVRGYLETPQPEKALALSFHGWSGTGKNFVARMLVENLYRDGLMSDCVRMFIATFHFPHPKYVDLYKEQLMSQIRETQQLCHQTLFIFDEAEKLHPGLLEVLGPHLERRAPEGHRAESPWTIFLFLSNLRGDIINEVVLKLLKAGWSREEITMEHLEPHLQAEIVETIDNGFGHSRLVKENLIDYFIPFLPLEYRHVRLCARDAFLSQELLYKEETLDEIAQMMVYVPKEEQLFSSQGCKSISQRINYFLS
UniProt O43715: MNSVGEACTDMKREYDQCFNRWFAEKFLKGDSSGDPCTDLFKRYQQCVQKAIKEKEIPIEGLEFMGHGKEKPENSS
UniProt Q96GJ1: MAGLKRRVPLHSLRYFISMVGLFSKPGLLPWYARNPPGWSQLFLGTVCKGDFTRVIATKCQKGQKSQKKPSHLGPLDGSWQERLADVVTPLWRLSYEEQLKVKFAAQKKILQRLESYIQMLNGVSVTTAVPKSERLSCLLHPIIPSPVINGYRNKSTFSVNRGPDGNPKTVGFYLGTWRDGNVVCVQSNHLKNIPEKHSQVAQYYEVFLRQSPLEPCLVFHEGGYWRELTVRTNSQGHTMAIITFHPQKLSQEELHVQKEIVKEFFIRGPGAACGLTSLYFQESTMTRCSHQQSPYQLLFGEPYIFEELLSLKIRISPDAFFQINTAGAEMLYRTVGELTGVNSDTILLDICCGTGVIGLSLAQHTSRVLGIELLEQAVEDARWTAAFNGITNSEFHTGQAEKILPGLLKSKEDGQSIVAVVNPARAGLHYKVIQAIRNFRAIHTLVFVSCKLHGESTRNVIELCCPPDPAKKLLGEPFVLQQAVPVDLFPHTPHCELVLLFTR
UniProt O14773: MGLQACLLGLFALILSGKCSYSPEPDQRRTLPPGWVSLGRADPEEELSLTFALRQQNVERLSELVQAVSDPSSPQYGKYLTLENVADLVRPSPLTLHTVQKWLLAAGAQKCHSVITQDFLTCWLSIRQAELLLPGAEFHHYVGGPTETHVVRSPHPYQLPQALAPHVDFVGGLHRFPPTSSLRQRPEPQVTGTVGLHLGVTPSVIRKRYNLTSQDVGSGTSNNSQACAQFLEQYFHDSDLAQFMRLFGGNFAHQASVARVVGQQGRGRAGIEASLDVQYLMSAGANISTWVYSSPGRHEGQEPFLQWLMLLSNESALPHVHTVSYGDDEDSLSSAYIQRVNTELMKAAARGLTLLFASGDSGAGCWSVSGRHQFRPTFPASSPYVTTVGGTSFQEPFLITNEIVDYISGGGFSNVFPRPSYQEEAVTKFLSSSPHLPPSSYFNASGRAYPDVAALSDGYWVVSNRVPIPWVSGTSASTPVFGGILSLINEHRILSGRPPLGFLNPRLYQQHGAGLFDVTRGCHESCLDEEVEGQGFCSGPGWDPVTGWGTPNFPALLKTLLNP
UniProt A5PLN9: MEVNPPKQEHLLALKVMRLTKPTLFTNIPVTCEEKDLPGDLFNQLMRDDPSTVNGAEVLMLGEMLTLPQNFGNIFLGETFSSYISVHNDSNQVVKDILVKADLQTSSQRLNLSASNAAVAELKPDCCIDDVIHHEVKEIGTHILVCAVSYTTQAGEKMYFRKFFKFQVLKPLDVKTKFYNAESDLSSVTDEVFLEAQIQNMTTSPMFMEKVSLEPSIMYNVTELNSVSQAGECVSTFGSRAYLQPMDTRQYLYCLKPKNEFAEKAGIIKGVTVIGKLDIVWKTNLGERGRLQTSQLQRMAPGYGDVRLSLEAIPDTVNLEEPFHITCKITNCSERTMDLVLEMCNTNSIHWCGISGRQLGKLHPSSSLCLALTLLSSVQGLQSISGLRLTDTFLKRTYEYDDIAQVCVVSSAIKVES
UniProt O14657: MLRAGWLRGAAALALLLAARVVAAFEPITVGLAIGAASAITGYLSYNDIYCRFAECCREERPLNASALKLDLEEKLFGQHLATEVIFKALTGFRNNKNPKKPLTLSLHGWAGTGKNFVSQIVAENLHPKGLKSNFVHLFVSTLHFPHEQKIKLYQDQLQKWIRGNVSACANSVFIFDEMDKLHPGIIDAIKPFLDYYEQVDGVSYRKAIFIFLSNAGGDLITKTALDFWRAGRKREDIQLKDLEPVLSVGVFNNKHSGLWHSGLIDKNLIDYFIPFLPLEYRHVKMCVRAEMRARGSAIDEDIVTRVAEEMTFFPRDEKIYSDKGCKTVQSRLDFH
UniProt Q7Z2T5: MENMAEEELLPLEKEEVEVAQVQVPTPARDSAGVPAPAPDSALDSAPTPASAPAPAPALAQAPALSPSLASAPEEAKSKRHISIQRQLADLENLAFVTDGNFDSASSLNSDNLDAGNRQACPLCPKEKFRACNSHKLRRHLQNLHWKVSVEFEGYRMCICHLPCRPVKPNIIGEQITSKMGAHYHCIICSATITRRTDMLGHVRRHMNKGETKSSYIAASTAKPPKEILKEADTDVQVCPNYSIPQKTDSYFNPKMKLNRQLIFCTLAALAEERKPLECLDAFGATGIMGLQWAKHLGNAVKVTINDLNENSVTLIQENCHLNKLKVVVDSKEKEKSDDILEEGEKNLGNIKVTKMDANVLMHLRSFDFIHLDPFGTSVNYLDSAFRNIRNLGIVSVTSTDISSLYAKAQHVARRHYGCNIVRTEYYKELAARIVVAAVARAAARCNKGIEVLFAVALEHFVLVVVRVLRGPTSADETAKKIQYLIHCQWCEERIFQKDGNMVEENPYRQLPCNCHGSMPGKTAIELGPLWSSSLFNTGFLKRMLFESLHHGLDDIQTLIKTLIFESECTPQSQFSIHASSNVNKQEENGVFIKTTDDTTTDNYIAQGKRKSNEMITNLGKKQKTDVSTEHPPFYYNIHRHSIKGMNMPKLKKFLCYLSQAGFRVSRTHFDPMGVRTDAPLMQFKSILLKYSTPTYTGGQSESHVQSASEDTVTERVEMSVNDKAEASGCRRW
UniProt P36406: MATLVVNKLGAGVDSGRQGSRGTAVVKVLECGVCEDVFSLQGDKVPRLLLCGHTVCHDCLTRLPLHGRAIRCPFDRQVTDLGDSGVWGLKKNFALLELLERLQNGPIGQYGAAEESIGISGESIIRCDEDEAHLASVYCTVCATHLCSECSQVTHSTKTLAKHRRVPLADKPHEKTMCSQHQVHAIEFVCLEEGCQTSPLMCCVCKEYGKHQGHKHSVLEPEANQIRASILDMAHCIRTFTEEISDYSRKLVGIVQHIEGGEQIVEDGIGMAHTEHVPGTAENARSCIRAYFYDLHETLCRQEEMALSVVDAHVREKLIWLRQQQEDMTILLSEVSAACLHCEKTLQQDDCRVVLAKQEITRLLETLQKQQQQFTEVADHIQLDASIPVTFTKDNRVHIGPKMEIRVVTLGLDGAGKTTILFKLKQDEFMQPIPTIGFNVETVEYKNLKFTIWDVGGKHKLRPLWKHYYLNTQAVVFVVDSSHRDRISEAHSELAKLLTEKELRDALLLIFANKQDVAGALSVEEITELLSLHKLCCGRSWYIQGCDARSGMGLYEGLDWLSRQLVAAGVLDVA
UniProt P02585, whole entry, looked up: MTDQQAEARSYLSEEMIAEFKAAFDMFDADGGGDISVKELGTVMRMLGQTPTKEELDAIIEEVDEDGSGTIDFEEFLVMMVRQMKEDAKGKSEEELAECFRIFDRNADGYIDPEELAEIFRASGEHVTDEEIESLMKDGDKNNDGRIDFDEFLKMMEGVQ
UniProt P06753, whole entry, looked up: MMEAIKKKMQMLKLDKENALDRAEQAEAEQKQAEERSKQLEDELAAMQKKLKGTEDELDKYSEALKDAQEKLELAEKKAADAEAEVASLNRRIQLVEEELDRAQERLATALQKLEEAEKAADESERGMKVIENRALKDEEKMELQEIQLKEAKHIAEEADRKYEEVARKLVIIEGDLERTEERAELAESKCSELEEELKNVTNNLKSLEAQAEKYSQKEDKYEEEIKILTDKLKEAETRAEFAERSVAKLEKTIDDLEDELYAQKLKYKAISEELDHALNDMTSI

[2] = compound: CC1=C(SC2=C1C(=N[C@H](C3=NN=C(N32)C)CC(=O)N)C4=CC=C(C=C4)Cl)C
Procedure, shortened: as §1

[3] = compound: CC1=C2C(=CC=C1)N=C(N(C2=O)C3=CC=CC=C3C)CN4C=NC5=C(N=CN=C54)N
Procedure, shortened: as §1

[4] = compound: Cc1sc2c(c1C)C(c1ccc(Cl)cc1)=N[C@@H](CC(=O)OC(C)(C)C)c1nnc(C)n1-2
Procedure, shortened: as §1

[5] = compound: c1ccc([C@@H]2C[C@H]2NC2CCNCC2)cc1
Procedure, shortened: as §1

Measured: log2 fold change

TRMT11 (UniProt Q7Z4G4)
inactive: [1] 0.061 | [2] 0.07 | [3] 0.044 | [4] -0.031 | [5] 0

TRIM32 (UniProt Q13049)
inactive: [1] -0.012 | [2] 0.062 | [3] -0.113 | [4] 0.107 | [5] 0.05

TNPO1 (UniProt Q92973)
inactive: [1] -0.017 | [2] 0.008 | [3] -0.012 | [4] -0.009 | [5] 0.018

TP53RK (UniProt Q96S44)
inactive: [1] 0.023 | [2] -0.018 | [3] -0.006 | [4] -0.03 | [5] 0.017

TOMM34 (UniProt Q15785)
inactive: [1] -0.14 | [2] 0.05 | [3] 0.112 | [4] -0.006 | [5] -0.063

TP53BP1 isoform 2 (UniProt Q12888)
inactive: [1] -0.025 | [2] -0.016 | [3] 0.025 | [4] 0.001 | [5] 0.032

TRAPPC5 (UniProt Q8IUR0)
inactive: [1] -0.051 | [2] 0.062 | [3] 0.046 | [4] -0.025 | [5] -0.012

TOR3A (UniProt Q9H497)
inactive: [1] -0.022 | [2] -0.023 | [3] 0.038 | [4] -0.02 | [5] 0.001

TRIAP1 (UniProt O43715)
inactive: [1] 0.07 | [2] 0.154 | [3] 0.061 | [4] -0.05 | [5] 0.01

TRMT2B (UniProt Q96GJ1)
inactive: [1] 0.073 | [2] -0.052 | [3] 0.035 | [4] 0.136 | [5] -0.073

Three successive records from above, for reference:
TRAPPC5 (UniProt Q8IUR0)
inactive: [1] -0.051 | [2] 0.062 | [3] 0.046 | [4] -0.025 | [5] -0.012

TOR3A (UniProt Q9H497)
inactive: [1] -0.022 | [2] -0.023 | [3] 0.038 | [4] -0.02 | [5] 0.001

TRIAP1 (UniProt O43715)
inactive: [1] 0.07 | [2] 0.154 | [3] 0.061 | [4] -0.05 | [5] 0.01

Following part.

TRAPPC6B (UniProt Q86SZ2)
inactive: [1] -0.007 | [2] 0.061 | [3] 0.048 | [4] -0.033 | [5] -0.013

TRAF6 (UniProt Q9Y4K3)
inactive: [1] -0.027 | [2] 0.086 | [3] -0.032 | [4] -0.012 | [5] -0.029

TPP1 (UniProt O14773)
inactive: [1] 0.019 | [2] 0.048 | [3] -0.02 | [4] 0.036 | [5] -0.067

TRAPPC13 isoform 5 (UniProt A5PLN9)
inactive: [1] -0.055 | [2] 0.154 | [3] 0.08 | [4] -0.013 | [5] -0.017

TNFRSF1B (UniProt P20333)
inactive: [1] 0.029 | [2] 0.013 | [3] -0.225 | [4] 0.041 | [5] 0.015

TOR1B (UniProt O14657)
inactive: [1] 0.013 | [2] -0.029 | [3] 0.017 | [4] -0.01 | [5] 0.003

TOM1L1 (UniProt O75674)
inactive: [1] -0.019 | [2] 0.045 | [3] 0.034 | [4] 0.009 | [5] 0.023

TRMT1L (UniProt Q7Z2T5)
inactive: [1] 0.012 | [2] -0.297 | [3] -0.256 | [4] 0.126 | [5] 0

TRIM23 (UniProt P36406)
inactive: [1] 0.023 | [2] 0.122 | [3] 0.049 | [4] -0.096 | [5] -0.05

TNNC2 (UniProt P02585)
inactive: [1] 0.043 | [2] 0.004 | [3] 0.06 | [4] -0.624 | [5] 0.031

TPM3 isoform 4 (UniProt P06753)
inactive: [1] 0.051 | [2] -0.058 | [3] -0.145 | [4] 0.099 | [5] 0.015

— the supplement of paper PMC10849652
